The values below come from paper PMC8436130.

Amino acid sequences for entries named in this document (tags omitted).
UniProt Q86WV6: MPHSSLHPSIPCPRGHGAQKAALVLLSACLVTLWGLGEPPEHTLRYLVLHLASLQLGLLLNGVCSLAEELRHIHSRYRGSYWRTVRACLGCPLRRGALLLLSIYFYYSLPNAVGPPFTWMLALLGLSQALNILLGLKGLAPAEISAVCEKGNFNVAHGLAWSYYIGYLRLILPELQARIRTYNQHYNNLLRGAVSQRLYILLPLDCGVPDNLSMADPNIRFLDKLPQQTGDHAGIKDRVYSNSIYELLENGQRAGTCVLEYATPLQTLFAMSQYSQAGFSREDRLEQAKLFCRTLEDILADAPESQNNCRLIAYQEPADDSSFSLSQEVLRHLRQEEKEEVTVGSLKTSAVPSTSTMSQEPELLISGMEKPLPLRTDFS

Results are given in words; binding and its absence hold for the method and conditions named. In cells and extracts the contact can be indirect. These calls come from enrichment with a bait or labelling near it, and not all partners need be listed.

B1: KIF22 (protein, UniProt Q14807 1-665)
chain: MAAGGSTQQRRREMAAASAAAISGAGRCRLSKIGATRRPPPARVRVAVRLRPFVDGTAGASDPPCVRGMDSCSLEIANWRNHQETLKYQFDAFYGERSTQQDIYAGSVQPILRHLLEGQNASVLAYGPTGAGKTHTMLGSPEQPGVIPRALMDLLQLTREEGAEGRPWALSVTMSYLEIYQEKVLDLLDPASGDLVIREDCRGNILIPGLSQKPISSFADFERHFLPASRNRTVGATRLNQRSSRSHAVLLVKVDQRERLAPFRQREGKLYLIDLAGSEDNRRTGNKGLRLKESGAINTSLFVLGKVVDALNQGLPRVPYRDSKLTRLLQDSLGGSAHSILIANIAPERRFYLDTVSALNFAARSKEVINRPFTNESLQPHALGPVKLSQKELLGPPEAKRARGPEEEEIGSPEPMAAPASASQKLSPLQKLSSMDPAMLERLLSLDRLLASQGSQGAPLLSTPKRERMVLMKTVEEKDLEIERLKTKQKELEAKMLAQKAEEKENHCPTMLRPLSHRTVTGAKPLKKAVVMPLQLIQEQAASPNAEIHILKNKGRKRKLESLDALEPEEKAEDCWELQISPELLAHGRQKILDLLNEGSARDLRSLQRIGPKKAQLIVGWRELHGPFSQVEDLERVEGITGKQMESFLKANILGLAAGQRCGAS
B2: AATF (protein, UniProt Q9NY61 1-560)
chain: MAGPQPLALQLEQLLNPRPSEADPEADPEEATAARVIDRFDEGEDGEGDFLVVGSIRKLASASLLDTDKRYCGKTTSRKAWNEDHWEQTLPGSSDEEISDEEGSGDEDSEGLGLEEYDEDDLGAAEEQECGDHRESKKSRSHSAKTPGFSVQSISDFEKFTKGMDDLGSSEEEEDEESGMEEGDDAEDSQGESEEDRAGDRNSEDDGVVMTFSSVKVSEEVEKGRAVKNQIALWDQLLEGRIKLQKALLTTNQLPQPDVFPLFKDKGGPEFSSALKNSHKALKALLRSLVGLQEELLFQYPDTRYLVDGTKPNAGSEEISSEDDELVEEKKQQRRRVPAKRKLEMEDYPSFMAKRFADFTVYRNRTLQKWHDKTKLASGKLGKGFGAFERSILTQIDHILMDKERLLRRTQTKRSVYRVLGKPEPAAQPVPESLPGEPEILPQAPANAHLKDLDEEIFDDDDFYHQLLRELIERKTSSLDPNDQVAMGRQWLAIQKLRSKIHKKVDRKASKGRKLRFHVLSKLLSFMAPIDHTTMNDDARTELYRSLFGQLHPPDEGHGD
B3: UHRF1 (protein, UniProt Q96T88 1-793)
chain: MWIQVRTMDGRQTHTVDSLSRLTKVEELRRKIQELFHVEPGLQRLFYRGKQMEDGHTLFDYEVRLNDTIQLLVRQSLVLPHSTKERDSELSDTDSGCCLGQSESDKSSTHGEAAAETDSRPADEDMWDETELGLYKVNEYVDARDTNMGAWFEAQVVRVTRKAPSRDEPCSSTSRPALEEDVIYHVKYDDYPENGVVQMNSRDVRARARTIIKWQDLEVGQVVMLNYNPDNPKERGFWYDAEISRKRETRTARELYANVVLGDDSLNDCRIIFVDEVFKIERPGEGSPMVDNPMRRKSGPSCKHCKDDVNRLCRVCACHLCGGRQDPDKQLMCDECDMAFHIYCLDPPLSSVPSEDEWYCPECRNDASEVVLAGERLRESKKKAKMASATSSSQRDWGKGMACVGRTKECTIVPSNHYGPIPGIPVGTMWRFRVQVSESGVHRPHVAGIHGRSNDGAYSLVLAGGYEDDVDHGNFFTYTGSGGRDLSGNKRTAEQSCDQKLTNTNRALALNCFAPINDQEGAEAKDWRSGKPVRVVRNVKGGKNSKYAPAEGNRYDGIYKVVKYWPEKGKSGFLVWRYLLRRDDDEPGPWTKEGKDRIKKLGLTMQYPEGYLEALANREREKENSKREEEEQQEGGFASPRTGKGKWKRKSAGGGPSRAGSPRRTSKKTKVEPYSLTAQQSSLIREDKSNAKLWNEVLASLKDRPASGSPFQLFLSKVEETFQCICCQELVFRPITTVCQHNVCKDCLDRSFRAQVFSCPACRYDLGRSYAMQVNQPLQTVLNQLFPGYGNGR
B4: HELLS (protein, UniProt Q9NRZ9 1-838)
chain: MPAERPAGSGGSEAPAMVEQLDTAVITPAMLEEEEQLEAAGLERERKMLEKARMSWDRESTEIRYRRLQHLLEKSNIYSKFLLTKMEQQQLEEQKKKEKLERKKESLKVKKGKNSIDASEEKPVMRKKRGREDESYNISEVMSKEEILSVAKKNKKENEDENSSSTNLCVEDLQKNKDSNSIIKDRLSETVRQNTKFFFDPVRKCNGQPVPFQQPKHFTGGVMRWYQVEGMEWLRMLWENGINGILADEMGLGKTVQCIATIALMIQRGVPGPFLVCGPLSTLPNWMAEFKRFTPDIPTMLYHGTQEERQKLVRNIYKRKGTLQIHPVVITSFEIAMRDRNALQHCYWKYLIVDEGHRIKNMKCRLIRELKRFNADNKLLLTGTPLQNNLSELWSLLNFLLPDVFDDLKSFESWFDITSLSETAEDIIAKEREQNVLHMLHQILTPFLLRRLKSDVALEVPPKREVVVYAPLSKKQEIFYTAIVNRTIANMFGSSEKETIELSPTGRPKRRTRKSINYSKIDDFPNELEKLISQIQPEVDRERAVVEVNIPVESEVNLKLQNIMMLLRKCCNHPYLIEYPIDPVTQEFKIDEELVTNSGKFLILDRMLPELKKRGHKVLLFSQMTSMLDILMDYCHLRDFNFSRLDGSMSYSEREKNMHSFNTDPEVFIFLVSTRAGGLGINLTAADTVIIYDSDWNPQSDLQAQDRCHRIGQTKPVVVYRLVTANTIDQKIVERAAAKRKLEKLIIHKNHFKGGQSGLNLSKNFLDPKELMELLKSRDYEREIKGSREKVISDKDLELLLDRSDLIDQMNASGPIKEKMGIFKILENSEDSSPECLF
B5: NOP58 (protein, UniProt Q9Y2X3 1-529)
chain: MLVLFETSVGYAIFKVLNEKKLQEVDSLWKEFETPEKANKIVKLKHFEKFQDTAEALAAFTALMEGKINKQLKKVLKKIVKEAHEPLAVADAKLGGVIKEKLNLSCIHSPVVNELMRGIRSQMDGLIPGVEPREMAAMCLGLAHSLSRYRLKFSADKVDTMIVQAISLLDDLDKELNNYIMRCREWYGWHFPELGKIISDNLTYCKCLQKVGDRKNYASAKLSELLPEEVEAEVKAAAEISMGTEVSEEDICNILHLCTQVIEISEYRTQLYEYLQNRMMAIAPNVTVMVGELVGARLIAHAGSLLNLAKHAASTVQILGAEKALFRALKSRRDTPKYGLIYHASLVGQTSPKHKGKISRMLAAKTVLAIRYDAFGEDSSSAMGVENRAKLEARLRTLEDRGIRKISGTGKALAKTEKYEHKSEVKTYDPSGDSTLPTCSKKRKIEQVDKEDEITEKKAKKAKIKVKVEEEEEEKVAEEEETSVKKKKKRGKKKHIKEEPLSEEEPCTSTAIASPEKKKKKKKKRENED
B6: DDX23, Q9BUQ8 1-820 (protein)
chain: MAGELADKKDRDASPSKEERKRSRTPDRERDRDRDRKSSPSKDRKRHRSRDRRRGGSRSRSRSRSKSAERERRHKERERDKERDRNKKDRDRDKDGHRRDKDRKRSSLSPGRGKDFKSRKDRDSKKDEEDEHGDKKPKAQPLSLEELLAKKKAEEEAEAKPKFLSKAEREAEALKRRQQEVEERQRMLEEERKKRKQFQDLGRKMLEDPQERERRERRERMERETNGNEDEEGRQKIREEKDKSKELHAIKERYLGGIKKRRRTRHLNDRKFVFEWDASEDTSIDYNPLYKERHQVQLLGRGFIAGIDLKQQKREQSRFYGDLMEKRRTLEEKEQEEARLRKLRKKEAKQRWDDRHWSQKKLDEMTDRDWRIFREDYSITTKGGKIPNPIRSWKDSSLPPHILEVIDKCGYKEPTPIQRQAIPIGLQNRDIIGVAETGSGKTAAFLIPLLVWITTLPKIDRIEESDQGPYAIILAPTRELAQQIEEETIKFGKPLGIRTVAVIGGISREDQGFRLRMGCEIVIATPGRLIDVLENRYLVLSRCTYVVLDEADRMIDMGFEPDVQKILEHMPVSNQKPDTDEAEDPEKMLANFESGKHKYRQTVMFTATMPPAVERLARSYLRRPAVVYIGSAGKPHERVEQKVFLMSESEKRKKLLAILEQGFDPPIIIFVNQKKGCDVLAKSLEKMGYNACTLHGGKGQEQREFALSNLKAGAKDILVATDVAGRGIDIQDVSMVVNYDMAKNIEDYIHRIGRTGRAGKSGVAITFLTKEDSAVFYELKQAILESPVSSCPPELANHPDAQHKPGTILTKKRREETIFA

The target in one assay is STimulator of INterferon Genes (STING) fused to GFP (UniProt Q86WV6). Nature of the assay: affinity purification with mass spectrometry; nuclear envelopes isolated from HEK293T cells expressing STING-GFP, reversibly cross-linked with ortho-phenanthroline copper, resuspended in RIPA and sonicated, immunoprecipitated with GFP antibodies on Protein A-sepharose, released with 50 mM DTT, tandem mass spectrometry; mock-transfected cells as control.
Details: not given
As to B1, the binding result is recorded as “binds”.
For B2, the binding entry is recorded as “binds”.
The same measure, in the same setting: as for B3, the entry is “binds”; as for B4, “binds”; as for B5, “binds”.

The target of the next assay is STimulator of INterferon Genes (STING) fused to GFP, Q86WV6. Described as above. The following applies: remark: other sources report otherwise.
Consider B6, for which the binding result is recorded as “binds”.
